Measurements: the supplement of paper PMC10849652
This is one part of the list.

Protein sequences, listed by entry. Tags and fused reporters are not part of them. Lines headed by an entry give the natural chain unless they say otherwise; changes in a name come on top.
UniProt P49591: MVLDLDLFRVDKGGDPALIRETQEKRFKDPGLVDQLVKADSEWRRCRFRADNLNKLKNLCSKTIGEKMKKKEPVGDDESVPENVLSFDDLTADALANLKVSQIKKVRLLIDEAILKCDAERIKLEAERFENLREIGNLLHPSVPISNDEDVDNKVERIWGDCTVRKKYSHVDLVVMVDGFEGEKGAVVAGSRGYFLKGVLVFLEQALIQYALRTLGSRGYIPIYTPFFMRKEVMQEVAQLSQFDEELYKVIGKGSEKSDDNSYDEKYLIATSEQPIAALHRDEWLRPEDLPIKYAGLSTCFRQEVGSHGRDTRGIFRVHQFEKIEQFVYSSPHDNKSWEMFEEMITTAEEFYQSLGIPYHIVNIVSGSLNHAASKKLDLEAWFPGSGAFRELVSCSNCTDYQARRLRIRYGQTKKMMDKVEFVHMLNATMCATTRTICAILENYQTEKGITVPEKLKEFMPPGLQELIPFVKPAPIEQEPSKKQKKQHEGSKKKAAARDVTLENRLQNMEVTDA
UniProt P31040: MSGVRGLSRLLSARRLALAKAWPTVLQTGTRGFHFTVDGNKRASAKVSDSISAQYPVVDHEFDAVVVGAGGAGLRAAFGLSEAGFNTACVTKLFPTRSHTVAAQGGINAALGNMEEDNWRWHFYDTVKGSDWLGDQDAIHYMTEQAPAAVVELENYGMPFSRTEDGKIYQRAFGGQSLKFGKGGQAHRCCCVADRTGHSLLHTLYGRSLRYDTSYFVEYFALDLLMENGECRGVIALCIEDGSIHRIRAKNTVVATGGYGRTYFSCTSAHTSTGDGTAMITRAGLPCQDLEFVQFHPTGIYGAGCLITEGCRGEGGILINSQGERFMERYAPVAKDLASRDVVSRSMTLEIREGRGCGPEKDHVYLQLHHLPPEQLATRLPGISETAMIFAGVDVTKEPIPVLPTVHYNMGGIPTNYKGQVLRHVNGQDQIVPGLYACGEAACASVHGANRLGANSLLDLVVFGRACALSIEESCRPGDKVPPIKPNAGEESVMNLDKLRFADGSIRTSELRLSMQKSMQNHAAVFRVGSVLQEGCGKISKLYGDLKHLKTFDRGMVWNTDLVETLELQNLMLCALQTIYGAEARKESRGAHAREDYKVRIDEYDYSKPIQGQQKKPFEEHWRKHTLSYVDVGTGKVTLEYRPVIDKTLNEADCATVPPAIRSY

What was measured:
Assay in all cases: log2 fold change, soluble protein after heating vs DMSO (PISA); higher = thermal stabilisation; K562 lysate, 10 uM; active = over 0.2 and 3.5 SD of the protein, either way, in both replicates (recomputed)
[1] = compound: C#Cc1cccc(Nc2ncnc3cc(OCCOC)c(OCCOC)cc23)c1 [erlotinib]
Method in brief: (§1)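 Log-two fold change in thermal stability relative to solvent controls is reported from duplicates. For each sample, crude K562 extract from dounce-homogenised pellets in PBS pH 7.4 with 1 mM MgCl2, at 1 mg/mL protein, was treated with 10 μM compound for 30 min. Aliquots heated for 3 min across 48°C-58°C were pooled, brought to 0.5% NP-40 at 4°C and cleared at 21,000xg for 90 min. The supernatant was quantified by TMTpro 16plex LC-MS/MS with channel sums equalised.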

[2] = compound: C/C(=N\NC(=O)C1=CC(=CC=C1)S(=O)(=O)N2CCOCC2)/C3=C(C=CC(=C3)Cl)O
Method in brief: as §1

[3] = compound: C1=CC(=CC=C1C2=NC3=C(N2)C=C(C=C3)C(=O)N)OC4=CC=C(C=C4)Cl
Method in brief: as §1

[4] = compound: C1=CC2=C(C=CC(=C2)/C=C\3/C(=O)NC(=NCC4=CC=CS4)S3)N=C1
Method in brief: as §1

[5] = compound: C1=CC2=NC=CN=C2C=C1/C=C/3\C(=O)NC(=O)S3
Method in brief: as §1

[6] = compound: C1=CC=C(C=C1)C2=NC(=C(N2)C3=CC=NC=C3)C4=CC(=C(C=C4)Cl)O
Method in brief: as §1

[7] = compound: C1=CC=C(C=C1)[C@H](COC2=CC3=C(C=C2)NC(=O)N3)NC(=O)C4=CC=CN(C4=O)CC5=CC(=C(C=C5)F)F
Method in brief: as §1

[8] = compound: C1=CC=C2C(=C1)C3=NNC4=CC=CC(=C43)C2=O
Method in brief: as §1

[9] = compound: C1CCN(C1)C(=O)NC2=CC=CC(=C2)NC3=NC=C(C(=N3)NCCC4=CN=CN4)Br
Method in brief: as §1

[10] = compound: C1CN(CCC1(CC2=CC=C(C=C2)Cl)N)C3=NC=NC4=C3C=CN4
Method in brief: as §1

[11] = compound: C1COCCN1CCN2C3=CC=CC=C3N=C2NC(=O)C4=CC(=CC=C4)[N+](=O)[O-] [IRAK-1-4 Inhibitor I]
Method in brief: as §1

[12] = compound: C=CC(=O)N1CCC[C@@H](n2nc(-c3ccc(Oc4ccccc4)cc3)c3c(N)ncnc32)C1 [ibrutinib]
Method in brief: as §1

[13] = compound: CC(=O)c1cnc2ccc(-c3cc(Cl)c(O)c(Cl)c3)nc2c1N[C@H]1CC[C@H](CN(C)C)CC1
Method in brief: as §1

[14] = compound: CC(C)(C)Cn1c(N)nc2ccc(-c3[nH]c(C(C)(C)C)nc3-c3ccc(F)cc3)nc21 [ralimetinib]
Method in brief: as §1

[15] = compound: CC(C)(O)CC(=O)NCCn1ccc2ncnc(Nc3ccc(Oc4cccc(C(F)(F)F)c4)c(Cl)c3)c21
Method in brief: as §1

[16] = compound: CC(C)C1=C2N=C(C=C(N2N=C1)NCC3=CC=CC=C3)NCCCCCCN
Method in brief: as §1

[17] = compound: CC1=C(C(CC(=O)N1)C2=CC=C(C=C2)C(F)(F)F)C(=O)NC3=C(C=C4C(=C3)C=NN4)F
Method in brief: as §1

[18] = compound: CC1=C(C2=C(C=C1)C(=O)C3=CC=CC=C3N2CCCN)C
Method in brief: as §1

[19] = compound: CC1=C(C=C(C=C1)NC(=O)C2=CC(=CC=C2)C(C)(C)C#N)NC3=CC4=C(C=C3)N=CN(C4=O)C
Method in brief: as §1

[20] = compound: CC1=C(C=C(C=C1)NC(=O)C2=CC(=CC=C2)N(C)C)NC(=O)C3=CC=C(C=C3)O
Method in brief: as §1

[21] = compound: CC1=C(SC2=C1C(=N[C@H](C3=NN=C(N32)C)CC(=O)N)C4=CC=C(C=C4)Cl)C
Method in brief: as §1

[22] = compound: CC1=C2C(=CC=C1)N=C(N(C2=O)C3=CC=CC=C3C)CN4C=NC5=C(N=CN=C54)N
Method in brief: as §1

[23] = compound: CC1=CC=C(C=C1)SC2=C3C=C(SC3=CN=C2)C(=O)N
Method in brief: as §1

[24] = compound: CCCS(=O)(=O)Nc1ccc(F)c(C(=O)c2c[nH]c3ncc(-c4ccc(Cl)cc4)cc23)c1F [vemurafenib]
Method in brief: as §1

[25] = compound: CCCS(=O)(=O)Nc1ccc(F)c(C(=O)c2c[nH]c3ncc(Cl)cc23)c1F
Method in brief: as §1

[26] = compound: CCN(CCCOc1ccc2c(Nc3cc(CC(=O)Nc4cccc(F)c4)[nH]n3)ncnc2c1)CCOP(=O)(O)O [barasertib]
Method in brief: as §1

[27] = compound: CC[C@@H]1C(=O)N(C)c2cnc(Nc3ccc(C(=O)NC4CCN(C)CC4)cc3OC)nc2N1C1CCCC1
Method in brief: as §1

[28] = compound: CC[C@@H]1C(=O)N(C)c2cnc(Nc3ccc(C(=O)N[C@H]4CC[C@H](N5CCN(CC6CC6)CC5)CC4)cc3OC)nc2N1C(C)C [volasertib]
Method in brief: as §1

[29] = compound: CCn1c(C(=O)N(C2CC2)C2CC2)cc2c3c(ncn3C)c(Nc3cc(C)n(C)n3)nc21
Method in brief: as §1

[30] = compound: CCn1cc(-c2ccnc3[nH]c(-c4cccc(CN(C)C)c4)cc23)c(-c2ccc(NC(=O)N(C)C)cc2)n1
Method in brief: as §1

[31] = compound: CN1CCC(CNc2ccc3ncc(-c4cccc(OC(F)(F)F)c4)n3n2)CC1
Method in brief: as §1

[32] = compound: CN1CCN(CCOc2cc(OC3CCOCC3)c3c(Nc4c(Cl)ccc5c4OCO5)ncnc3c2)CC1 [saracatinib]
Method in brief: as §1

[33] = compound: CN1CCN(c2nc(C3=C(c4c[nH]c5ccccc45)C(=O)NC3=O)c3ccccc3n2)CC1 [sotrastaurin]
Method in brief: as §1

[34] = compound: CN1CC[C@H](c2c(O)cc(O)c3c(=O)cc(-c4ccccc4Cl)oc23)[C@H](O)C1 [alvocidib]
Method in brief: as §1

[35] = compound: CN1CCc2c(c3ccccc3n2Cc2ccc(C(=O)NO)cc2)C1 [Tubastatin A]
Method in brief: as §1

[36] = compound: CNC(=O)C1=CC=CC=C1NC2=NC(=NC=C2Cl)NC3=C(C=C(C=C3)N4CCOCC4)OC
Method in brief: as §1

[37] = compound: CNC(=O)c1ccc(Nc2ncc(C(F)(F)F)c(NCc3nccnc3N(C)S(C)(=O)=O)n2)cc1 [defactinib]
Method in brief: as §1

[38] = compound: CNc1nc(-c2ccc3c(N)n[nH]c3c2)cc(N2C[C@@H](C(=O)NC3CCCCC3)CC[C@H]2C)n1
Method in brief: as §1

[39] = compound: COC(=O)N[C@@H](C)CNc1nccc(-c2cn(C(C)C)nc2-c2cc(Cl)cc(NS(C)(=O)=O)c2F)n1 [encorafenib]
Method in brief: as §1

[40] = compound: COC(=O)[C@H](CCSC)NC(=O)C1=C(C=C(C=C1)NC[C@H](CS)N)C2=CC=CC=C2
Method in brief: as §1

[41] = compound: COc1cc(Nc2ncc3c(n2)-c2ccc(Cl)cc2C(c2c(F)cccc2OC)=NC3)ccc1C(=O)O [alisertib]
Method in brief: as §1

[42] = compound: COc1cc2nc(-c3cc(F)ccc3O)nc(N[C@@H]3CNC[C@H]3C(C)(C)O)c2cc1OC
Method in brief: as §1

[43] = compound: COc1cc2ncnc(Nc3ccc(F)c(Cl)c3)c2cc1OCCCN1CCOCC1 [gefitinib]
Method in brief: as §1

[44] = compound: CS(=O)(=O)CCNCc1ccc(-c2ccc3ncnc(Nc4ccc(OCc5cccc(F)c5)c(Cl)c4)c3c2)o1 [lapatinib]
Method in brief: as §1

[45] = compound: CS(=O)(=O)N1CCN(Cc2cc3nc(-c4cccc5[nH]ncc45)nc(N4CCOCC4)c3s2)CC1 [pictilisib]
Method in brief: as §1

[46] = compound: C[C@@H](Oc1cc(-c2cnn(C3CCNCC3)c2)cnc1N)c1c(Cl)ccc(F)c1Cl [crizotinib]
Method in brief: as §1

[47] = compound: C[C@H](C1=CC=C(C=C1)C(=O)NC2=C3C=CNC3=NC=C2)N
Method in brief: as §1

[48] = compound: C[C@H](Nc1ncnc2nc[nH]c12)c1cc2cccc(Cl)c2c(=O)n1-c1ccccc1 [duvelisib]
Method in brief: as §1

[49] = compound: Cc1cc(Nc2cc(CN3CCOCC3)c3nc(C)c(Cc4ccc(Cl)cc4F)n3n2)n[nH]1 [gandotinib]
Method in brief: as §1

[50] = compound: Cc1cc(Nc2cc(N3CCN(C)CC3)nc(Sc3ccc(NC(=O)C4CC4)cc3)n2)n[nH]1 [tozasertib]
Method in brief: as §1

[51] = compound: Cc1ccc(-n2nc(C(C)(C)C)cc2NC(=O)Nc2ccc(OCCN3CCOCC3)c3ccccc23)cc1 [doramapimod]
Method in brief: as §1

[52] = compound: Cc1ccc(NC(=O)c2ccc(CN3CC[C@H](N(C)C)C3)c(C(F)(F)F)c2)cc1Nc1nccc(-c2cncnc2)n1 [bafetinib]
Method in brief: as §1

[53] = compound: Cc1cccc(CC(=O)N2CCc3c2ccc(-c2cn(C)c4ncnc(N)c24)c3F)n1
Method in brief: as §1

[54] = compound: Cc1cn(-c2cc(NC(=O)c3ccc(C)c(Nc4nccc(-c5cccnc5)n4)c3)cc(C(F)(F)F)c2)cn1 [nilotinib]
Method in brief: as §1

[55] = compound: Cc1nc(Nc2n[nH]c3c2CN(C(=O)N[C@H](CN(C)C)c2ccccc2)C3(C)C)c2sccc2n1
Method in brief: as §1

[56] = compound: Cc1nc(Nc2ncc(C(=O)Nc3c(C)cccc3Cl)s2)cc(N2CCN(CCO)CC2)n1 [dasatinib]
Method in brief: as §1

[57] = compound: Cc1ncc(-c2ccnc(Nc3ccc(S(C)(=O)=O)cc3)n2)n1C(C)C
Method in brief: as §1

[58] = compound: Cc1sc2c(c1C)C(c1ccc(Cl)cc1)=N[C@@H](CC(=O)OC(C)(C)C)c1nnc(C)n1-2
Method in brief: as §1

[59] = compound: Cn1cc(-c2ccc3c(c2)CCN3C(=O)Cc2cccc(C(F)(F)F)c2)c2c(N)ncnc21
Method in brief: as §1

[60] = compound: Cn1cc(CNCC2CCN(c3ncc(C(=O)NO)cn3)CC2)c2ccccc21 [quisinostat]
Method in brief: as §1

[61] = compound: Cn1cncc1[C@@](N)(c1ccc(Cl)cc1)c1ccc2c(c1)c(-c1cccc(Cl)c1)cc(=O)n2C [tipifarnib]
Method in brief: as §1

[62] = compound: NC(=O)Nc1cc(-c2cccc(F)c2)sc1C(=O)N[C@H]1CCCNC1
Method in brief: as §1

[63] = compound: NC(=O)c1cnc(N[C@@H]2CCCC[C@@H]2N)nc1Nc1cccc(-n2nccn2)c1
Method in brief: as §1

[64] = compound: NC1(c2ccc(-c3nc4ccn5c(=O)[nH]nc5c4cc3-c3ccccc3)cc2)CCC1
Method in brief: as §1

[65] = compound: NCC(=O)Nc1ccc(-n2nc(C(F)(F)F)cc2-c2ccc3c(ccc4ccccc43)c2)cc1
Method in brief: as §1

[66] = compound: O=C(CCCCCCC(=O)Nc1ccccc1)NO [vorinostat]
Method in brief: as §1

[67] = compound: O=C(O)c1ccc2c(c1)nc(Nc1cccc(Cl)c1)c1ccncc12 [silmitasertib]
Method in brief: as §1

[68] = compound: O=C1NC(=O)C(c2cnc3ccccn23)=C1c1cn2c3c(cc(F)cc13)CN(C(=O)N1CCCCC1)CC2
Method in brief: as §1

[69] = compound: c1ccc([C@@H]2C[C@H]2NC2CCNCC2)cc1
Method in brief: as §1

[70] = compound: c1cn2cc(-c3ccc4cn[nH]c4c3)nc(Nc3ccc(N4CCOCC4)cc3)c2n1 [entospletinib]
Method in brief: as §1

Measured: log2 fold change

SARS (UniProt P49591)
inactive: [1] 0.002 | [2] 0.055 | [3] 0.003 | [4] -0.015 | [5] -0.02 | [6] -0.012 | [7] -0.001 | [8] -0.013 | [9] -0.009 | [10] -0.005 | [11] -0.002 | [12] 0.035 | [13] 0.014 | [14] 0.003 | [15] 0 | [16] 0.006 | [17] -0.022 | [18] 0 | [19] -0.005 | [20] 0.002 | [21] 0.007 | [22] -0.01 | [23] 0.01 | [24] -0.01 | [25] -0.004 | [26] -0.024 | [27] -0.027 | [28] -0.027 | [29] -0.001 | [30] 0.093 | [31] -0.033 | [32] -0.006 | [33] -0.011 | [34] 0.029 | [35] -0.006 | [36] -0.009 | [37] -0.017 | [38] -0.025 | [39] 0.007 | [40] -0.039 | [41] 0.013 | [42] 0.001 | [43] -0.014 | [44] 0 | [45] -0.006 | [46] 0.026 | [47] 0.095 | [48] 0.01 | [49] -0.034 | [50] -0.016 | [51] -0.03 | [52] 0.062 | [53] -0.044 | [54] 0.01 | [55] -0.015 | [56] -0.032 | [57] 0.009 | [58] 0.009 | [59] 0.005 | [60] 0.07 | [61] 0.029 | [62] 0.003 | [63] -0.019 | [64] 0.015 | [65] -0.011 | [66] -0.079 | [67] -0.004 | [68] 0.03 | [69] 0.055 | [70] 0.017

SDHA (UniProt P31040)
inactive: [7] 0.114 | [21] -0.012 | [22] -0.012 | [58] 0.005 | [69] -0.007
